PubChem BioAssay AID1671195 | Yale University – 2021
The deposit covers about 22,000 reagents; shown is an unselected part. About 1,510 of all reagents (6.9%) count as active. 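Active includes knockdowns raising or lowering LDL uptake; positive z-scores mean more uptake, negative mean less.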 The numbers tell different reagents against one gene apart.

Purpose: 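Knockdowns that increase or decrease uptake of fluorescent LDL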 (primary screen)
Cells: human Huh7 hepatoma cells
Reagent: siRNA pool against human genes, 18 nM
Duration: about 2 to 2.5 days of knockdown, then 8 h LDL uptake
Challenge: DiI-labelled LDL at 30 µg/ml for 8 h, in lipoprotein-deficient serum medium
Detection: 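Fluorescent LDL signal imaged in cells, scaled to the plate median, robust z-score for each replicate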
Scale: robust z-score: higher = more LDL uptake after knockdown
Active means: 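Active when two or more replicates show a robust z-score above 2 or below -2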

gene	pool no.	robust z-score, replicate 1	robust z-score, replicate 2	robust z-score, replicate 3	outcome
LIN54	1	0.908	0.129	-0.347	inactive
OR4D2	1	-0.856	-0.917	-0.291	inactive
SLC30A7	1	1.16	0.696	0.13	inactive
IRAK1BP1	1	0.357	1.22	1.08	inactive
ITPR3	1	-0.0476	-0.612	-0.608	inactive
CRB1	1	0.751	1.48	0.645	inactive
LOC442243 (retired record)	1	-1.16	-1.07	-1.37	inactive
NEK11	1	1.76	2.44	1.4	inactive
ZDHHC6	1	-0.656	-1.31	-0.284	inactive
LOC441392 (retired record)	1	0.689	0.385	0.335	inactive
ADCY2	1	0.698	0.0927	-0.0543	inactive
CCDC167	1	1.09	2.6	1.44	inactive
PLRG1	1	0.261	0.649	1.32	inactive
ANGPTL7	1	-0.546	-0.332	0.676	inactive
LOC391844 (retired record)	1	1.45	0.273	0.0548	inactive
SLC22A16	1	0.462	0.569	0.393	inactive
TAF1	1	-1.29	-1.59	-1.29	inactive
TUBA1A	1	-0.519	-0.208	-0.298	inactive
MAGEA11	1	0.861	0.448	0.225	inactive
CERS5	1	-1.79	-1.62	-1.07	inactive
USP46	1	-0.432	-0.551	-0.445	inactive
LINC02873	1	0.352	0.237	0.526	inactive
HSBP1	1	-0.341	-0.705	-0.501	inactive
BUB1	1	-0.333	-1.07	-0.421	inactive
DGKE	1	0.299	-0.112	-0.114	inactive
LOC400216 (retired record)	1	1.66	0.992	1.26	inactive
EPHA4	1	0.571	1.25	0.959	inactive
MOAP1	1	-2.27	-2.06	-2.08	active
LOC401178 (retired record)	1	1.54	1.24	0.997	inactive
TAC3	1	-1.4	-0.747	-0.564	inactive

Only “robust z-score, replicate 3”, for 11 of the entries above:
IRAK1BP1 = 1.08
ITPR3 = -0.608
CRB1 = 0.645
LOC442243 (retired record) = -1.37
NEK11 = 1.4
ZDHHC6 = -0.284
LOC441392 (retired record) = 0.335
ADCY2 = -0.0543
CCDC167 = 1.44
PLRG1 = 1.32
ANGPTL7 = 0.676

The list goes on.
gene	pool no.	robust z-score, replicate 1	robust z-score, replicate 2	robust z-score, replicate 3	outcome
SELENOO	1	-0.471	-0.38	0.41	inactive
IRX3	1	1.93	1.01	0.0507	inactive
LOC387932 (retired record)	1	-0.289	-0.207	0.183	inactive
HRC	1	0.637	0.595	0.0662	inactive
THA1P	1	0.0344	0.552	0.459	inactive
P3H3	1	0.634	0.865	1.24	inactive
RSRC2	1	-0.0452	0.179	0.000293	inactive
HDAC7	1	0.4	0.35	1.9	inactive
TMC6	1	-0.389	-0.975	-0.119	inactive
SRRM2	1	0.682	-1.97	0.61	inactive
OCRL	1	-0.779	-0.0127	-0.327	inactive
SERPINA6	1	-1.46	0.064	-0.638	inactive
HTR6	1	-0.388	-0.0965	-0.586	inactive
BEST3	1	1.32	1.65	1.64	inactive
BEST3	2	-0.863	-0.359	-1.03	inactive
PRRC2C	1	-0.425	1.16	-0.144	inactive
TRHR	1	-0.0463	-0.326	-0.0315	inactive
SPATA31D3	1	0.87	1.18	0.862	inactive
MORC2	1	-0.037	-0.0576	0.173	inactive
DIDO1	1	0.341	0.27	0.262	inactive
MPDZ	1	-0.439	-0.939	-0.905	inactive
SRF	1	2.48	2.8	1.65	active
SLAIN1	1	-0.725	-0.878	-0.657	inactive
PPM1F	1	0.248	0.156	0.214	inactive
TNMD	1	-0.219	-0.283	-0.329	inactive
FOXR1	1	0.381	0.182	0.538	inactive
FAM106A	1	0.428	1.52	0.507	inactive
KRT28	1	-0.142	0.441	-0.0902	inactive
FLJ42393	1	-1.5	-1.45	-1.41	inactive
KCNK9	1	-0.496	0.0997	-0.596	inactive
LOC440668 (retired record)	1	-0.963	-0.918	-0.611	inactive
GPR150	1	0.969	0.678	1.38	inactive
DPY19L2	1	-0.821	-0.66	-0.472	inactive
RPL7P34	1	-0.119	-0.0536	0.179	inactive
FFAR2	1	1.37	0.632	0.926	inactive
AP1S1	1	-0.539	-0.512	-0.445	inactive
LOC442408 (retired record)	1	-1.64	-1.08	-1.15	inactive
TRIM27	1	1.01	-0.304	1.07	inactive
